# Earlier results as cited in patent US20060165683A1, “Methods and compositions for control of bone formation via modulation of sympathetic tone” (priority 2001, published 2006).
# System: ovariectomized rat
# Details: cited from earlier work
smiles,measurement,value
COc1ccc(CC(C)NCC(O)c2ccc(O)c(NC=O)c2)cc1 (stereo not shown) [formoterol],effects in bone,Anabolic effects
